# Some of the results follow.
# Amino acid sequences for entries named in this document (tags omitted). A change or cut given only in a name is not applied to a line headed by its entry.
# UniProt Q01085: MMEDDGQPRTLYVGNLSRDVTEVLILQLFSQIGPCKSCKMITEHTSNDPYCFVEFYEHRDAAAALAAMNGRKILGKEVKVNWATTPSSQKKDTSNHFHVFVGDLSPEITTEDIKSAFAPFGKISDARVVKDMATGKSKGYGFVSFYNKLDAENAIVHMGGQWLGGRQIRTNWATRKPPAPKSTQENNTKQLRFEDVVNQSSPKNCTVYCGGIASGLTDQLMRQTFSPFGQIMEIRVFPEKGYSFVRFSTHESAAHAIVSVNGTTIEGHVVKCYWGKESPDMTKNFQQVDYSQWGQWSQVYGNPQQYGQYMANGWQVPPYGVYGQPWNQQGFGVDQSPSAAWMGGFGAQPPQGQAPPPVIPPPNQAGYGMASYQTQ
# UniProt P21980: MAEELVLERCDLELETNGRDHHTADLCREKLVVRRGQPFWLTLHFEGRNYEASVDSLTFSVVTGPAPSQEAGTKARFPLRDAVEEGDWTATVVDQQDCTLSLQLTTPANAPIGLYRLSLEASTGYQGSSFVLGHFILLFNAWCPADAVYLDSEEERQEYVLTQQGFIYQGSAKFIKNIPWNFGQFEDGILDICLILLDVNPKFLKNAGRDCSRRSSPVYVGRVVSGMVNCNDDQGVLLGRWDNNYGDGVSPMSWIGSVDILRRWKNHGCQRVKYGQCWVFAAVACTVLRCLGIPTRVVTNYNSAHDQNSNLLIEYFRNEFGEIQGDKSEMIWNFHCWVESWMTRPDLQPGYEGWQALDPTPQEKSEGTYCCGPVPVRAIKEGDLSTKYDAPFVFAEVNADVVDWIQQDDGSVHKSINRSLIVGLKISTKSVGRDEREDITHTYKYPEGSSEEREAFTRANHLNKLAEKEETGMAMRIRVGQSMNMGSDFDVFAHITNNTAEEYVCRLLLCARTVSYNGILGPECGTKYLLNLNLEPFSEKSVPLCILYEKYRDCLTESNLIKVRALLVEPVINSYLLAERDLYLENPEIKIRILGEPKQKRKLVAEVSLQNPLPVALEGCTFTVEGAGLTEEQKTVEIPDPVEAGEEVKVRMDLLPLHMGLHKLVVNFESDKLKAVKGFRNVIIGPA
# UniProt Q9Y584: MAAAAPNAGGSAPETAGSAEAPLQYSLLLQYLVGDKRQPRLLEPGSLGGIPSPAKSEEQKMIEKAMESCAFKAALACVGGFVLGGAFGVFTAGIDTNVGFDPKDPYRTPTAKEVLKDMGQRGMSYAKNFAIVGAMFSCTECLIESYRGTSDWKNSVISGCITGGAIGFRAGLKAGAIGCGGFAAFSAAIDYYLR
# UniProt Q15554: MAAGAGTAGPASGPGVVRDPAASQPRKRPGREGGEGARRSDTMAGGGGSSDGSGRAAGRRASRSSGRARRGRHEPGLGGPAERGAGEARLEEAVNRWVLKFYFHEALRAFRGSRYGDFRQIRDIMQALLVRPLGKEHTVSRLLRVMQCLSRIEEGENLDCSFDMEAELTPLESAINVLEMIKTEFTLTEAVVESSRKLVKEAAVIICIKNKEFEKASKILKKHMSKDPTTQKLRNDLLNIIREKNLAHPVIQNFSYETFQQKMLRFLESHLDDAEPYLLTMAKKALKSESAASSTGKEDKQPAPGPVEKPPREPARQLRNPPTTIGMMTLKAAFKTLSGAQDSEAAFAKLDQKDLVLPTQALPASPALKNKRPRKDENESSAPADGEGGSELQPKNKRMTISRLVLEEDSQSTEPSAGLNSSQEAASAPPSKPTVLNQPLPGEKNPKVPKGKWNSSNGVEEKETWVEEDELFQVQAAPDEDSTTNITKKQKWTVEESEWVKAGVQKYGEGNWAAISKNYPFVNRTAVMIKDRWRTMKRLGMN
# UniProt O60907: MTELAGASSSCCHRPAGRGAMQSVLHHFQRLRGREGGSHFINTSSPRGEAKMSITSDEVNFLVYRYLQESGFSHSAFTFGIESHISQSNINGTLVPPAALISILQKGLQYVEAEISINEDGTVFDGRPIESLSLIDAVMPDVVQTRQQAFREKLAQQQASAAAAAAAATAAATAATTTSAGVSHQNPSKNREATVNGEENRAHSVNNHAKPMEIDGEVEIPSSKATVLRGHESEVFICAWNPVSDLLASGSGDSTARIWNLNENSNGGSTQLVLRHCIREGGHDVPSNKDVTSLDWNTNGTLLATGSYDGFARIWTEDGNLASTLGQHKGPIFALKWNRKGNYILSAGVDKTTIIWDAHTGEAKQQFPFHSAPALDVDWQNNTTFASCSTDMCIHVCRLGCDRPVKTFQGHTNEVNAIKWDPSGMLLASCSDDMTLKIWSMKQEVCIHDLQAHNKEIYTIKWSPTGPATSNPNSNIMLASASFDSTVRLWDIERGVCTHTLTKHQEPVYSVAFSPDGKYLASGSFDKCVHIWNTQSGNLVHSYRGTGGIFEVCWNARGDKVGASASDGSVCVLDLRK
# UniProt Q9Y6I9: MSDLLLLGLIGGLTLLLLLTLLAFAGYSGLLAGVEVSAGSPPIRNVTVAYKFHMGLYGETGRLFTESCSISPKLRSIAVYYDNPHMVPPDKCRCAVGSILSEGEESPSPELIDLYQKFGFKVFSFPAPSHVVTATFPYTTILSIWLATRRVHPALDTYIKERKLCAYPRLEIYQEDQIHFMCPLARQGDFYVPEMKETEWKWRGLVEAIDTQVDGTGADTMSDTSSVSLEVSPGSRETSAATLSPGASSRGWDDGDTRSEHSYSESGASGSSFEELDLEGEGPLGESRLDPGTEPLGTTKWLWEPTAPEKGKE
# UniProt Q8WUH2: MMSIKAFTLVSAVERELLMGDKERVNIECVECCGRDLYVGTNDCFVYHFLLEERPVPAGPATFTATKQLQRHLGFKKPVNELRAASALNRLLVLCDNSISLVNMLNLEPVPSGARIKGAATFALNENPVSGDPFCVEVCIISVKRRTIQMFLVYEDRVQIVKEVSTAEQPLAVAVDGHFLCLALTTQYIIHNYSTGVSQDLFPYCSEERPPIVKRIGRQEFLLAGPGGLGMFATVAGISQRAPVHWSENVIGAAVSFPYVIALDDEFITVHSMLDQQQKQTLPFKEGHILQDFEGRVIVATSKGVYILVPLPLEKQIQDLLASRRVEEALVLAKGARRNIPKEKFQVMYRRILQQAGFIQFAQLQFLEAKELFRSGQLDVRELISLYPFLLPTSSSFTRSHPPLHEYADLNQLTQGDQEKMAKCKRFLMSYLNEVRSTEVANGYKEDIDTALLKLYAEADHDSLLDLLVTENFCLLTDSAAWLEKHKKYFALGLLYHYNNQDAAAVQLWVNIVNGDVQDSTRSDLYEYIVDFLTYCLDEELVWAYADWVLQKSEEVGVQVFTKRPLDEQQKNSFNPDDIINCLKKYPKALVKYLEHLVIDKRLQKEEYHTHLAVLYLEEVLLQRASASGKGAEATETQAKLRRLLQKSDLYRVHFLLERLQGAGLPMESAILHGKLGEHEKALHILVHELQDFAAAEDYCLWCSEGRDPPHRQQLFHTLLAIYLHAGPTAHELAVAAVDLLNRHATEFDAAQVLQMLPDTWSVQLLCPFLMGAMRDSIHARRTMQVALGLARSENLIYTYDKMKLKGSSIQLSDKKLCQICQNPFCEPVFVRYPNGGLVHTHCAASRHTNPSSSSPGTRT
# UniProt Q9UP52: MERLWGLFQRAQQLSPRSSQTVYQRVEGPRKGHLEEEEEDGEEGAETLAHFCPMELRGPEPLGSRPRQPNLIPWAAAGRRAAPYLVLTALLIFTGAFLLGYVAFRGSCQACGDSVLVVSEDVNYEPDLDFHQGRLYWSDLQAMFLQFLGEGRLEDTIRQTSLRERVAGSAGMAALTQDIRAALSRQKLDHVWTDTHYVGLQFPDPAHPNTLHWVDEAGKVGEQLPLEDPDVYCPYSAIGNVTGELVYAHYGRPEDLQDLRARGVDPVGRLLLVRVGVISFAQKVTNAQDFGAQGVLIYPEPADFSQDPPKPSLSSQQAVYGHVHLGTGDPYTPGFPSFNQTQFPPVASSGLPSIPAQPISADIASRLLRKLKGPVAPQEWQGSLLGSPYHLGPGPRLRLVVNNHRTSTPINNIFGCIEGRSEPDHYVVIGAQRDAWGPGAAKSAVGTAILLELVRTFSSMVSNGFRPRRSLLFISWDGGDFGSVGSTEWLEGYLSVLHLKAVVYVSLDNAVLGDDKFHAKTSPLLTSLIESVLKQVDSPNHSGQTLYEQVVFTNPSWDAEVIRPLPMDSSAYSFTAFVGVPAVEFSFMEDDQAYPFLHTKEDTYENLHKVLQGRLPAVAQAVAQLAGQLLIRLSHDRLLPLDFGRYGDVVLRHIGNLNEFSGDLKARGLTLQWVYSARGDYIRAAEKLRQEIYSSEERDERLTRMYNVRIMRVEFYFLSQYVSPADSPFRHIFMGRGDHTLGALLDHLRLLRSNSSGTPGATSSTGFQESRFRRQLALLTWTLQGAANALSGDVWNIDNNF
# UniProt Q3LXA3: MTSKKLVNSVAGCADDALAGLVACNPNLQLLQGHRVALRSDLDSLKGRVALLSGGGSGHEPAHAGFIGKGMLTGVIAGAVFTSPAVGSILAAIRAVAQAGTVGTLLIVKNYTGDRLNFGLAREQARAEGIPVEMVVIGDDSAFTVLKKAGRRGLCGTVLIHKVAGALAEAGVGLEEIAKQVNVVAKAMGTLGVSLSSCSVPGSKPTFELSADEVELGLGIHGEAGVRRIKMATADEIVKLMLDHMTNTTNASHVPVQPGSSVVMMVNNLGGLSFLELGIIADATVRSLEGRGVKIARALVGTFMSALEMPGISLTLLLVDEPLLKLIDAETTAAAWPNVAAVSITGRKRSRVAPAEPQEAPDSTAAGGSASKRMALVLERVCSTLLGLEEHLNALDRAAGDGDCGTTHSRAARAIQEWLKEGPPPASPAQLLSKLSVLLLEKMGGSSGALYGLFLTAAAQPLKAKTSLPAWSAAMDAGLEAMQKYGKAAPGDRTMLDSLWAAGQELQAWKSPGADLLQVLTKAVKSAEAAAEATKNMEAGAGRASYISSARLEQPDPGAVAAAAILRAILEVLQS
# UniProt Q13428: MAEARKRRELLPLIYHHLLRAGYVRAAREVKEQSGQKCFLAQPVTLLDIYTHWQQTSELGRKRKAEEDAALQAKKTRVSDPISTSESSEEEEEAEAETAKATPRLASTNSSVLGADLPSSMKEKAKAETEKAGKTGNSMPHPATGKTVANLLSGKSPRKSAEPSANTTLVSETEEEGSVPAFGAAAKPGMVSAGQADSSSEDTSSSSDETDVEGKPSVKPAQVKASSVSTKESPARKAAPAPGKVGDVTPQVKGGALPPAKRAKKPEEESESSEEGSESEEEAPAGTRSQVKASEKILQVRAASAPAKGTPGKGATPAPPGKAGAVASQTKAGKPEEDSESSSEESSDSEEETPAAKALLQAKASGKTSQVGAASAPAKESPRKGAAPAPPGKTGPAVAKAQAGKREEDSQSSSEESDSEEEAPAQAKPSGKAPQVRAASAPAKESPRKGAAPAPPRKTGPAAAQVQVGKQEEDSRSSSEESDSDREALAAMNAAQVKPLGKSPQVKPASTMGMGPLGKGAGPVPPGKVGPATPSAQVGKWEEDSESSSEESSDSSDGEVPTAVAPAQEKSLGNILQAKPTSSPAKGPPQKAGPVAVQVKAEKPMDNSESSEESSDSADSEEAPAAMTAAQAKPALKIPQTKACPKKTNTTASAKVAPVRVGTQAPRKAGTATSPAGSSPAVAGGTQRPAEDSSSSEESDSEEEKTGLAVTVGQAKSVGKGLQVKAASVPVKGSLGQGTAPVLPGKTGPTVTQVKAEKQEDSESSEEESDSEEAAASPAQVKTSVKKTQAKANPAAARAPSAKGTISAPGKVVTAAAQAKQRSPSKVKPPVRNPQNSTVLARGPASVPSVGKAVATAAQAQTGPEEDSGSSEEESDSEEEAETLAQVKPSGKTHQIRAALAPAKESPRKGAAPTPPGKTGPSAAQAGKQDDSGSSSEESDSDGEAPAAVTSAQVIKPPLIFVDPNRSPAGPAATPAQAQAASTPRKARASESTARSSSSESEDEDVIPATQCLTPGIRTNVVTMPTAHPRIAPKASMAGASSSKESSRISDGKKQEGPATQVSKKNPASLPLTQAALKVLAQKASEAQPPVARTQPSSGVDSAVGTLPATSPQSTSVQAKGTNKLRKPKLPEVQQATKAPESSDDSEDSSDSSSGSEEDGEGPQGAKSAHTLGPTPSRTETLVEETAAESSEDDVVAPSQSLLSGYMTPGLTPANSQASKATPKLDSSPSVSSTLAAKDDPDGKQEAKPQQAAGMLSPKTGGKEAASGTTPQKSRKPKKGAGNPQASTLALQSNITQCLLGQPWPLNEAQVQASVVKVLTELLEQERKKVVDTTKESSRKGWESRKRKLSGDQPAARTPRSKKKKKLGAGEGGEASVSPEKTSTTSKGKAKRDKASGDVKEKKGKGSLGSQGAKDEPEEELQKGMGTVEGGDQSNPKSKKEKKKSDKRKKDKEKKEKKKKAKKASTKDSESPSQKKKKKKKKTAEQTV
# UniProt Q99595: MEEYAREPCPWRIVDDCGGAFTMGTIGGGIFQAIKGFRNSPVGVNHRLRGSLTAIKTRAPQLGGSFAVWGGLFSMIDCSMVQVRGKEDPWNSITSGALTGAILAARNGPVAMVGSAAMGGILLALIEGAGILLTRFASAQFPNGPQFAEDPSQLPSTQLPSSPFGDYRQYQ
# Compound: CS(=O)(=O)CCNCc1ccc(-c2ccc3ncnc(Nc4ccc(OCc5cccc(F)c5)c(Cl)c4)c3c2)o1 [lapatinib]
# Assay: log2 fold change, soluble protein after heating vs DMSO (PISA); higher = thermal stabilisation; K562 cells, 10 uM, 30 min; active = over 0.2 and 3.5 SD of the protein, either way, in both replicates (recomputed)
# How it was run: (§1)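 Values are thermal stability changes relative to control samples and are taken from duplicates. They are stated as log2 fold changes. Before quantification by TMTpro 16plex LC-MS/MS with equalised channel sums, K562 cells at 2×10^6 cells/mL were treated with 10 μM compound for 30 min, heated in aliquots for 3 min across 48°C-58°C, pooled, extracted in PBS with 0.5% NP-40 at 4°C, and centrifuged at 21,000xg for 90 min to give the soluble supernatant.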
row,Target,log2 fold change
1,TIAL1 isoform 2 (UniProt Q01085),inactive: 0.029
2,TLE3 isoform 4 (UniProt Q04726),inactive: 0.022
3,TGM2 (UniProt P21980),inactive: -0.037
4,TGFB1 (UniProt P01137),inactive: -0.011
5,TDP2 isoform 2 (UniProt O95551),inactive: 0.03
6,TECR (UniProt Q9NZ01),inactive: -0.012
7,TIMM22 (UniProt Q9Y584),inactive: 0.023
8,THBS4 (UniProt P35443),inactive: -0.055
9,TERF2 (UniProt Q15554),inactive: 0.019
10,TICAM2 isoform 2 (UniProt Q86XR7),inactive: -0.024
11,TIMM13 (UniProt Q9Y5L4),inactive: 0.027
12,TBL1X (UniProt O60907),inactive: -0.005
13,TF (UniProt P02787),inactive: 0.347
14,THOC5 (UniProt Q13769),inactive: -0.037
15,TBC1D15 isoform 3 (UniProt Q8TC07),inactive: 0.032
16,TESC (UniProt Q96BS2),inactive: -0.08
17,TCERG1 (UniProt O14776),inactive: -0.036

# Compound: CS(=O)(=O)N1CCN(Cc2cc3nc(-c4cccc5[nH]ncc45)nc(N4CCOCC4)c3s2)CC1 [pictilisib]
# Assay: as above
# How it was run: as §1
row,Target,log2 fold change
1,TEX264 (UniProt Q9Y6I9),inactive: 0.321
2,THOP1 (UniProt P52888),inactive: 0.037
3,TGFBRAP1 (UniProt Q8WUH2),inactive: -0.136
4,TIMM9 (UniProt Q9Y5J7),inactive: 0.097
5,TCF3 (UniProt P15923),inactive: 0.063
6,TIMM10 (UniProt P62072),inactive: 0.008
7,TFR2 (UniProt Q9UP52),inactive: 0.05
8,TBL1XR1 (UniProt Q9BZK7),inactive: 0.141
9,TBC1D9B (UniProt Q66K14),inactive: 0.068
10,TKFC (UniProt Q3LXA3),inactive: 0.031
11,TGFBR1 isoform 2 (UniProt P36897),inactive: -0.073
12,TCOF1 isoform 4 (UniProt Q13428),inactive: 0.028
13,TIMM8A (UniProt O60220),inactive: 0.032
14,THUMPD2 (UniProt Q9BTF0),inactive: -0.021
15,TFB2M (UniProt Q9H5Q4),inactive: -0.021
16,TIMM17A (UniProt Q99595),inactive: 0.011
17,TFRC (UniProt P02786),inactive: 0.048
18,THG1L (UniProt Q9NWX6),inactive: 0.031
19,TBCC (UniProt Q15814),inactive: 0.021
20,TES (UniProt Q9UGI8),inactive: 0.022

row,Target,log2 fold change
1,TELO2 (UniProt Q9Y4R8),inactive: -0.023
2,TBCA (UniProt O75347),inactive: 0
3,TBC1D4 (UniProt O60343),inactive: -0.029
4,TIAL1 isoform 2 (UniProt Q01085),inactive: 0.01
5,TLE3 isoform 4 (UniProt Q04726),inactive: -0.033
6,TGM2 (UniProt P21980),inactive: -0.012
7,TGFB1 (UniProt P01137),inactive: 0
8,TDP2 isoform 2 (UniProt O95551),inactive: 0.001
9,TECR (UniProt Q9NZ01),inactive: -0.102
10,TIMM22 (UniProt Q9Y584),inactive: -0.013
11,THBS4 (UniProt P35443),inactive: -0.25
12,TERF2 (UniProt Q15554),inactive: -0.043
13,TICAM2 isoform 2 (UniProt Q86XR7),inactive: 0.112
14,TIMM13 (UniProt Q9Y5L4),inactive: -0.056
15,TBL1X (UniProt O60907),inactive: 0.039
16,TF (UniProt P02787),inactive: 0.027
17,THOC5 (UniProt Q13769),inactive: 0.002
18,TBC1D15 isoform 3 (UniProt Q8TC07),inactive: -0.009
19,TESC (UniProt Q96BS2),inactive: 0.12
20,TCERG1 (UniProt O14776),inactive: 0

# Source: the supplement of paper PMC10849652
